# Data published in the supplement of paper PMC8728848.
# The other results are listed elsewhere or left out.
# Key:
# Experiment in all cases: glycan array binding signal (z-score within array); higher = stronger binding
# Conditions in all cases: glycan notation: IUPAC condensed, linker removed; mutation: D21K
# [1] = molecular target: Gal(b1-4)GlcNAc(b1-2)[Gal(b1-4)GlcNAc(b1-6)]Man(a1-6)[Gal(b1-4)GlcNAc(b1-2)Man(a1-3)]Man(b1-4)GlcNAc(b1-4)[Fuc(a1-6)]GlcNAc
# Outline: (§1)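 The binding signal is a Z-score computed within each array and averaged over linkers. Arrays of the same protein sequence at different concentrations or buffers were also averaged together. Data originate from 3228 arrays in the Consortium for Functional Glycomics database, kept only where the protein sequence was available.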
# [2] = molecular target: Gal(b1-4)GlcNAc(b1-2)[Gal(b1-4)GlcNAc(b1-6)]Man(a1-6)[GlcNAc(b1-4)][Gal(b1-4)GlcNAc(b1-2)Man(a1-3)]Man(b1-4)GlcNAc(b1-4)GlcNAc
# Outline: as §1
# [3] = molecular target: Gal(b1-4)GlcNAc(b1-2)[Gal(b1-4)GlcNAc(b1-6)]Man(a1-6)[GlcNAc(b1-4)][Gal(b1-4)GlcNAc(b1-2)[Gal(b1-4)GlcNAc(b1-4)]Man(a1-3)]Man(b1-4)GlcNAc(b1-4)[Fuc(a1-6)]GlcNAc
# Outline: as §1
# [4] = molecular target: Gal(b1-4)GlcNAc(b1-3)Gal(b1-3)GalNAc
# Outline: as §1
# [5] = molecular target: Gal(b1-4)GlcNAc(b1-3)Gal(b1-3)GlcNAc
# Outline: as §1
# [6] = molecular target: Gal(b1-4)GlcNAc(b1-3)Gal(b1-4)Glc
# Outline: as §1
# [7] = molecular target: Gal(b1-4)GlcNAc(b1-3)Gal(b1-4)GlcNAc
# Outline: as §1
# [8] = molecular target: Gal(b1-4)GlcNAc(b1-3)Gal(b1-4)GlcNAc(b1-2)Man(a1-3)[Gal(b1-4)GlcNAc(b1-3)Gal(b1-4)GlcNAc(b1-2)Man(a1-6)]Man(b1-4)GlcNAc(b1-4)GlcNAc
# Outline: as §1
# [9] = molecular target: Gal(b1-4)GlcNAc(b1-3)Gal(b1-4)GlcNAc(b1-2)Man(a1-3)[Gal(b1-4)GlcNAc(b1-3)Gal(b1-4)GlcNAc(b1-2)Man(a1-6)]Man(b1-4)GlcNAc(b1-4)[Fuc(a1-6)]GlcNAc
# Outline: as §1
# [10] = molecular target: Gal(b1-4)GlcNAc(b1-3)Gal(b1-4)GlcNAc(b1-2)[Gal(b1-4)GlcNAc(b1-3)Gal(b1-4)GlcNAc(b1-6)]Man(a1-6)[Gal(b1-4)GlcNAc(b1-3)Gal(b1-4)GlcNAc(b1-2)Man(a1-3)]Man(b1-4)GlcNAc(b1-4)GlcNAc
# Outline: as §1
# [11] = molecular target: Gal(b1-4)GlcNAc(b1-3)Gal(b1-4)GlcNAc(b1-2)[Gal(b1-4)GlcNAc(b1-3)Gal(b1-4)GlcNAc(b1-6)]Man(a1-6)[Gal(b1-4)GlcNAc(b1-3)Gal(b1-4)GlcNAc(b1-2)Man(a1-3)]Man(b1-4)GlcNAc(b1-4)[Fuc(a1-6)]GlcNAc
# Outline: as §1
# [12] = molecular target: Gal(b1-4)GlcNAc(b1-3)Gal(b1-4)GlcNAc(b1-3)Gal(b1-4)GlcNAc
# Outline: as §1
# [13] = molecular target: Gal(b1-4)GlcNAc(b1-3)Gal(b1-4)GlcNAc(b1-3)Gal(b1-4)GlcNAc(b1-2)Man(a1-3)[Gal(b1-4)GlcNAc(b1-3)Gal(b1-4)GlcNAc(b1-3)Gal(b1-4)GlcNAc(b1-2)Man(a1-6)]Man(b1-4)GlcNAc(b1-4)GlcNAc
# Outline: as §1
# [14] = molecular target: Gal(b1-4)GlcNAc(b1-3)Gal(b1-4)GlcNAc(b1-3)Gal(b1-4)GlcNAc(b1-2)Man(a1-3)[Gal(b1-4)GlcNAc(b1-3)Gal(b1-4)GlcNAc(b1-3)Gal(b1-4)GlcNAc(b1-2)Man(a1-6)]Man(b1-4)GlcNAc(b1-4)[Fuc(a1-6)]GlcNAc
# Outline: as §1
# [15] = molecular target: Gal(b1-4)GlcNAc(b1-3)Gal(b1-4)GlcNAc(b1-3)Gal(b1-4)GlcNAc(b1-2)[Gal(b1-4)GlcNAc(b1-3)Gal(b1-4)GlcNAc(b1-3)Gal(b1-4)GlcNAc(b1-6)]Man(a1-6)[Gal(b1-4)GlcNAc(b1-3)Gal(b1-4)GlcNAc(b1-3)Gal(b1-4)GlcNAc(b1-2)Man(a1-3)]Man(b1-4)GlcNAc(b1-4)[Fuc(a1-6)]GlcNAc
# Outline: as §1
# [16] = molecular target: Gal(b1-4)GlcNAc(b1-3)Gal(b1-4)GlcNAc(b1-3)Gal(b1-4)GlcNAc(b1-3)Gal(b1-4)GlcNAc(b1-2)Man(a1-3)[Gal(b1-4)GlcNAc(b1-3)Gal(b1-4)GlcNAc(b1-3)Gal(b1-4)GlcNAc(b1-3)Gal(b1-4)GlcNAc(b1-2)Man(a1-6)]Man(b1-4)GlcNAc(b1-4)GlcNAc
# Outline: as §1
# [17] = molecular target: Gal(b1-4)GlcNAc(b1-3)Gal(b1-4)GlcNAc(b1-3)Gal(b1-4)GlcNAc(b1-3)Gal(b1-4)GlcNAc(b1-2)Man(a1-3)[Gal(b1-4)GlcNAc(b1-3)Gal(b1-4)GlcNAc(b1-3)Gal(b1-4)GlcNAc(b1-3)Gal(b1-4)GlcNAc(b1-2)Man(a1-6)]Man(b1-4)GlcNAc(b1-4)[Fuc(a1-6)]GlcNAc
# Outline: as §1
# [18] = molecular target: Gal(b1-4)GlcNAc(b1-3)Gal(b1-4)GlcNAc(b1-3)Gal(b1-4)GlcNAc(b1-3)Gal(b1-4)GlcNAc(b1-2)[Gal(b1-4)GlcNAc(b1-3)Gal(b1-4)GlcNAc(b1-3)Gal(b1-4)GlcNAc(b1-3)Gal(b1-4)GlcNAc(b1-6)]Man(a1-6)[Gal(b1-4)GlcNAc(b1-3)Gal(b1-4)GlcNAc(b1-3)Gal(b1-4)GlcNAc(b1-3)Gal(b1-4)GlcNAc(b1-2)Man(a1-3)]Man(b1-4)GlcNAc(b1-4)[Fuc(a1-6)]GlcNAc
# Outline: as §1
# [19] = molecular target: Gal(b1-4)GlcNAc(b1-3)Gal(b1-4)GlcNAc(b1-3)Gal(b1-4)GlcNAc(b1-3)Gal(b1-4)GlcNAc(b1-3)Gal(b1-4)GlcNAc(b1-2)Man(a1-3)[Gal(b1-4)GlcNAc(b1-3)Gal(b1-4)GlcNAc(b1-3)Gal(b1-4)GlcNAc(b1-3)Gal(b1-4)GlcNAc(b1-3)Gal(b1-4)GlcNAc(b1-2)Man(a1-6)]Man(b1-4)GlcNAc(b1-4)GlcNAc
# Outline: as §1
# [20] = molecular target: Gal(b1-4)GlcNAc(b1-3)Gal(b1-4)GlcNAc(b1-3)Gal(b1-4)GlcNAc(b1-3)Gal(b1-4)GlcNAc(b1-3)Gal(b1-4)GlcNAc(b1-2)Man(a1-3)[Gal(b1-4)GlcNAc(b1-3)Gal(b1-4)GlcNAc(b1-3)Gal(b1-4)GlcNAc(b1-3)Gal(b1-4)GlcNAc(b1-3)Gal(b1-4)GlcNAc(b1-2)Man(a1-6)]Man(b1-4)GlcNAc(b1-4)[Fuc(a1-6)]GlcNAc
# Outline: as §1
# [21] = molecular target: Gal(b1-4)GlcNAc(b1-3)Gal(b1-4)GlcNAc(b1-3)Gal(b1-4)GlcNAc(b1-3)Gal(b1-4)GlcNAc(b1-3)Gal(b1-4)GlcNAc(b1-2)[Gal(b1-4)GlcNAc(b1-3)Gal(b1-4)GlcNAc(b1-3)Gal(b1-4)GlcNAc(b1-3)Gal(b1-4)GlcNAc(b1-3)Gal(b1-4)GlcNAc(b1-6)]Man(a1-6)[Gal(b1-4)GlcNAc(b1-3)Gal(b1-4)GlcNAc(b1-3)Gal(b1-4)GlcNAc(b1-3)Gal(b1-4)GlcNAc(b1-3)Gal(b1-4)GlcNAc(b1-2)Man(a1-3)]Man(b1-4)GlcNAc(b1-4)[Fuc(a1-6)]GlcNAc
# Outline: as §1
# [22] = molecular target: Gal(b1-4)GlcNAc(b1-3)Gal(b1-4)GlcNAc(b1-3)Gal(b1-4)GlcNAc(b1-3)Gal(b1-4)GlcNAc(b1-3)Gal(b1-4)GlcNAc(b1-3)Gal(b1-4)GlcNAc(b1-2)Man(a1-3)[Gal(b1-4)GlcNAc(b1-3)Gal(b1-4)GlcNAc(b1-3)Gal(b1-4)GlcNAc(b1-3)Gal(b1-4)GlcNAc(b1-3)Gal(b1-4)GlcNAc(b1-3)Gal(b1-4)GlcNAc(b1-2)Man(a1-6)]Man(b1-4)GlcNAc(b1-4)GlcNAc
# Outline: as §1
# [23] = molecular target: Gal(b1-4)GlcNAc(b1-3)Gal(b1-4)GlcNAc(b1-3)GalNAc
# Outline: as §1
# [24] = molecular target: Gal(b1-4)GlcNAc(b1-3)Gal(b1-4)GlcNAc(b1-3)[Gal(b1-4)GlcNAc(b1-3)Gal(b1-4)GlcNAc(b1-6)]GalNAc
# Outline: as §1
# [25] = molecular target: Gal(b1-4)GlcNAc(b1-3)Gal(b1-4)GlcNAc(b1-6)[Gal(b1-3)]GalNAc
# Outline: as §1
# [26] = molecular target: Gal(b1-4)GlcNAc(b1-3)Gal(b1-4)[Fuc(a1-3)]GlcNAc(b1-3)Gal(b1-4)[Fuc(a1-3)]GlcNAc
# Outline: as §1
binder,measurement,setting,value
KILRGVCKKIMRTFLRRISKKILTGKK [C7A (Sus scrofa)],glycan array binding signal (z-score),[1],1.17
same,glycan array binding signal (z-score),[2],-0.597
same,glycan array binding signal (z-score),[3],0.179
same,glycan array binding signal (z-score),[4],1.19
same,glycan array binding signal (z-score),[5],-1.71
same,glycan array binding signal (z-score),[6],-0.403
same,glycan array binding signal (z-score),[7],-0.128
same,glycan array binding signal (z-score),[8],1.08
same,glycan array binding signal (z-score),[9],3.05
same,glycan array binding signal (z-score),[10],-0.48
same,glycan array binding signal (z-score),[11],0.618
same,glycan array binding signal (z-score),[12],-1.19
same,glycan array binding signal (z-score),[13],1.22
same,glycan array binding signal (z-score),[14],1.93
same,glycan array binding signal (z-score),[15],0.442
same,glycan array binding signal (z-score),[16],0.053
same,glycan array binding signal (z-score),[17],1.59
same,glycan array binding signal (z-score),[18],-0.172
same,glycan array binding signal (z-score),[19],0.909
same,glycan array binding signal (z-score),[20],0.455
same,glycan array binding signal (z-score),[21],1.52
same,glycan array binding signal (z-score),[22],0.329
same,glycan array binding signal (z-score),[23],2.33
same,glycan array binding signal (z-score),[24],1.72
same,glycan array binding signal (z-score),[25],2.48
same,glycan array binding signal (z-score),[26],-0.696

# Quoted at random: 2 entries already listed.
binder,measurement,setting,value
KILRGVCKKIMRTFLRRISKKILTGKK [C7A (Sus scrofa)],glycan array binding signal (z-score),[16],0.053
same,glycan array binding signal (z-score),[23],2.33
